{"source": "patent US12644045B2", "about": "“Fluorescent compounds and application thereof” (The Hong Kong University of Science and Technology, priority 2020, dated 2026)", "tested_on": "high-fat feeding mice liver tissue", "assay": "Ex vivo fatty liver tissue one-photon and two-photon imaging, penetration depth", "details": "TBSM 4 μM, 1 h", "procedure": "Ex vivo fatty liver tissue imaging. FIG. 21A Two-photon (λex=880 nm) images of and FIG. 21C one-photon (λex=488 nm) images of high-fat feeding mice liver tissue stained with TBSM (4 μM, 1 h) at different penetration depths. λem=550-650 nm FIG. 21B Reconstructed 3D two-photon images. FIG. 21D Reconstructed 3D one-photon images. Scale bar: 40 μm in FIG. 21A and 20 μm in FIG. 21C. Two photon penetration depth: 72 μm, One photon penetration depth: 15 μm.\nIn comparison with luminogens with one-photon excitation, the excitation wavelength of two-photon luminogens can be extended to a deep red region or even near-infrared region, which can successfully overcome the drawbacks of short wavelength excitation. […] Besides, 3D one-photon and two-photon fluorescent images along different visual directions were reconstructed by combining the images at different depth (FIG. 21A, FIG. 21B, FIG. 21C and FIG. 21D). […] One-photon cell imaging experiments were performed by confocal laser scanning microscopy (CLSM)."}
{"compound": "N#CC(C#N)=C1Sc2c(F)c(-c3ccc(N(c4ccccc4)c4ccccc4)cc3)c3nsnc3c2S1", "note": "[TBSM]", "values": [{"measurement": "One photon penetration depth", "setting": "λex=488 nm", "result": 15, "unit": "μm"}, {"measurement": "Two photon penetration depth", "setting": "λex=880 nm", "result": 72, "unit": "μm"}]}
